Test results published in publication PMC2533704.
No constants are given. Whether binding was seen depends on the method and setting. Binding seen in cells or lysates may run through a third protein. Some binding calls cover weakened binding; strength is not graded here. Where a sequence is shown, tags or fusion partners need not be part of it.

Experiments:
Ndj1-HA (S. cerevisiae) = target: T1, Ndj1-HA (S. cerevisiae) (UniProt Q12366); test: co-IP; meiotic cell lysates from NDJ1-HA diploid and untagged strain; IP with anti-HA probed with anti-Csm4, and reciprocal IP with anti-Csm4 probed with anti-HA; performed as described previously (ref. 5)
T1 sequence: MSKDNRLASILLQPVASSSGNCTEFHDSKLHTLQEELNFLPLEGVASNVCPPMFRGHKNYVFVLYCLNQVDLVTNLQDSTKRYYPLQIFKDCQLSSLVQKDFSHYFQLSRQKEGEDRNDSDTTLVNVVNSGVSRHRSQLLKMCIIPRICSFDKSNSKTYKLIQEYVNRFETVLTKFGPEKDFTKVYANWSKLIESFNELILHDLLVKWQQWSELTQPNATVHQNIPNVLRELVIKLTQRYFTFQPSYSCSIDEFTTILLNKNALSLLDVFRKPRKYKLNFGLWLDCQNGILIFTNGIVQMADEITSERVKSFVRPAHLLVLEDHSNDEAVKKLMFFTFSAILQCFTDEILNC

Csm4 (S. cerevisiae) = target: T2, Csm4 (S. cerevisiae) (UniProt Q08955); test: as above
T2 sequence: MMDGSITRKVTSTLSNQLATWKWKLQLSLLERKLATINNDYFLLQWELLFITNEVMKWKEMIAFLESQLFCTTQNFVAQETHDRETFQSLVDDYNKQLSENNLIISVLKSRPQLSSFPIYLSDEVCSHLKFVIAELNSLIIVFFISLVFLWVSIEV

B1: Csm4 (protein, UniProt Q08955 1-156)
chain: T2 sequence
B1 was tested, and the binding (Ndj1-HA (S. cerevisiae)) was “binds”.

B2: Ndj1-HA (protein, UniProt Q12366 1-352)
chain: T1 sequence
With B2 the binding (Csm4 (S. cerevisiae)) was “binds”.
